Laboratory results as given in PubChem BioAssay AID504444 (National Center for Advancing Translational Sciences (NCATS), 2011).
Among all 360,000 compounds or so, about 7,500 (2.1%) were called active. Inconclusive results, whose numbers are uncertain, are shown with a selection of clear calls. Calls come from the whole dose curve; as a rule, active = well fitted inhibition curve with a large enough effect; inconclusive = small, poorly fitted or top-dose-only effect, or effect the other way; inactive = flat fitted curve, though single readings scatter. Potencies of inconclusive entries are doubtful fits and often do not repeat.

assay: Nrf2 qHTS screen for inhibitors; settings: A549 ARE-Fluc reporter, luciferase luminescence, 18-24 h; activity change, negative = inhibition: at 46 µM (top of the series); note: nearly all actives have a fitted effect of over 60% in size
How it was run: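 Reporter: ARE-Fluc in A549. Exposure: 18-24 h, 37 °C, 5% CO2, 5% FBS OPTI-MEM. Readouts: fluorescent cytotoxicity (CellTiter-Fluor), then luminescent Nrf2 signal after BugLite.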
% is set by controls: 0 for no effect and ±100 for the full control effect; potency is the fitted concentration of half-maximal effect.

| SMILES | Potency | activity change, negative = inhibition |
| --- | --- | --- |
| CCOC(=O)Cc1c(C)nc2c(-c3ccc(Cl)cc3)c[nH]n2c1=O | inconclusive: 16.4 µM [falling, partial curve, poor fit] | – |
| Cc1ccc(S(=O)(=O)N[C@H](C(=O)OCC(=O)NC(=O)c2cccn2C)C(C)C)cc1 | inconclusive: 29.1 µM [activator, single point] | – |
| O=C(/C=C/c1cccc([N+](=O)[O-])c1)n1cnc2ccccc21 | inconclusive: 4.61 µM [activator, full curve, poor fit] | – |
| CSc1nc2ccc(S(=O)(=O)Nc3c(C)n(C)n(-c4ccccc4)c3=O)cc2s1 | inconclusive: 7.31 µM [falling, partial curve, poor fit] | – |
| O=C(NCC(c1cccnc1)N1CCN(c2ccc(F)cc2)CC1)c1ccc(F)cc1 (stereo not drawn) | inconclusive: 16.4 µM [falling, partial curve, poor fit] | – |
| CC(/C=C1\SC(=S)N(C(C(=O)O)C(C)C)C1=O)=C\c1ccccc1 (stereo not drawn) | inconclusive: 20.6 µM [activator, partial curve] | – |
| c1ccc(CCSc2ncnc3nc[nH]c23)cc1 | inconclusive: 29.1 µM [falling, single point] | – |
| CC1CCCC(C)N1CCCNC(=O)c1ccc2nc(N3CCCCC3)sc2c1 (stereo not drawn) | inconclusive: 2.31 µM [activator, full curve] | – |
| Cc1nnc(N2CCN(C(=O)Nc3cc(F)ccc3F)CC2)c2nn(-c3ccc(Cl)cc3)c(C)c12 | inconclusive: 29.1 µM [falling, single point] | – |
| COC(=O)c1ccc(N2CCN(S(=O)(=O)c3ccc4ccccc4c3)CC2)c([N+](=O)[O-])c1 | inconclusive: 16.4 µM [falling, partial curve, poor fit] | – |
| Cc1ccc(NC(=O)c2c(C)nn(-c3ccccc3)c2Cl)cc1 | inconclusive: 2.91 µM [activator, full curve] | – |
| Cc1cc(C)n(-c2nc(NCCN(C)C)c3c4c(sc3n2)CCCC4)n1 | inconclusive: 29.1 µM [activator, single point] | – |
| C/C(=N\NC(=O)c1ccccc1F)c1cccc(NC(=O)c2ccc(C)cc2)c1 | inconclusive: 4.11 µM [activator, partial curve, poor fit] | – |
| Cc1cc(NC(=O)c2cc(-c3ccco3)on2)no1 | inconclusive: 23.1 µM [activator, partial curve, poor fit] | – |
| CCN(CC(=O)Nc1ccc(NC(C)=O)cc1)C(=O)CCCOc1cccc(C)c1 | inconclusive: 23.1 µM [falling, single point] | – |
| COc1ccc2c(c1)c(CC(=O)OCC(N)=O)c(C)n2C(=O)c1ccc(Cl)cc1 | inconclusive: 14.6 µM [falling, partial curve, poor fit] | – |
| CCCCCCCCCC(=O)NNC(=O)c1c(O)c2ccccc2n(CC)c1=O | inconclusive: 29.1 µM [falling, single point] | – |
| COc1ccc(C)cc1NC(=O)CSc1ccc(-c2sc(C)nc2C)nn1 | active: 9.2 µM | – |
| OC1CCC(NC(=S)Nc2ccc(SC(F)F)cc2)CC1 (stereo not drawn) | inconclusive: 13 µM [activator, partial curve] | – |
| O=C(Nc1ccccc1Cl)c1sccc1-c1ccccc1 | inconclusive: 18.4 µM [activator, partial curve] | – |
| O=C(Nc1nc(-c2ccc(F)c(F)c2)cs1)C1=COCCO1 | inconclusive: 6.51 µM [activator, partial curve, poor fit] | – |

| SMILES | Potency | activity change, negative = inhibition |
| --- | --- | --- |
| COc1ccc(-c2nc3ccccc3c(=O)n2NC(=O)Cc2ccccc2)cc1 | – | inactive: 12.2% |
| CCn1c(=N)n(CC(=O)c2cccc([N+](=O)[O-])c2)c2ccccc21 | inconclusive: 5.8 µM [activator, partial curve] | – |
| COC(=O)[C@@]1(Cc2ccc(F)cc2)[C@H]2c3cc(C(=O)N4CCCC4)n(CCCNc4ncc(C(F)(F)F)cc4Cl)c3C[C@H]2CN1C(=O)c1ccccc1 | inconclusive: 23.1 µM [falling, single point] | – |
| COc1ccc(-c2cc3ccccc3n2CC(O)CN2CCN(CCO)CC2)cc1 (stereo not drawn) | inconclusive: 32.6 µM [activator, single point] | – |
| O=S(=O)(ON(c1ccccc1)S(=O)(=O)c1ccccc1)c1ccccc1 | inconclusive: 23.1 µM [falling, single point] | – |
| Cn1c(O)c(N=Nc2ccc(F)cc2)c2ccccc21 | inconclusive: 23.1 µM [activator, single point] | – |
| CCOC(=O)c1sc(Nc2nc3c(F)cccc3s2)cc1C | – | inactive: 0.425% |
| O=c1c2c3nc4ccccc4nc3n(Cc3ccccc3)c2ncn1Cc1ccco1 | inconclusive: 29.1 µM [falling, single point] | – |
| O=C(Nc1ccc2c(c1)OCO2)C1CCCN1C(=O)Nc1ccccc1F (stereo not drawn) | inconclusive: 0.326 µM [falling, full curve, poor fit] | – |
| CCOc1ccc(NC(=O)CCS(=O)(=O)c2cc3c4c(c2)CCN4C(=O)CC3)cc1 | inconclusive: 7.31 µM [activator, partial curve] | – |
| CCc1ccccc1NC(=O)CCc1c(C)nc2cc(-c3ccccc3)nn2c1C | inconclusive: 8.2 µM [falling, partial curve] | – |
| O=C(Nc1cccc(Cl)c1)C1CCCN(c2nn3cc(-c4ccc(F)cc4)nc3s2)C1 (stereo not drawn) | inconclusive: 29.1 µM [falling, single point] | – |
| C=CC(=O)Nc1cccc(N(C)c2ccnc(Nc3ccc(N4CCN(C)CC4)cc3)n2)c1 | inconclusive: 20.6 µM [falling, partial curve] | – |
| COc1ccc2cc3c(N)nn(C(=O)c4cccc(F)c4)c3nc2c1 | inconclusive: 2.59 µM [falling, full curve, poor fit] | – |
| COc1ccc(OC)c(NC(=O)Cn2c(=O)c3cccn3c3ccccc32)c1 | inconclusive: 29.1 µM [falling, single point] | – |
| COc1ccc2[nH]c3c(c2c1)CCn1c-3nc2ccccc2c1=O | inconclusive: 1.84 µM [activator, partial curve] | – |
| CCOc1ccc(C(=O)Nc2cc(-c3nc4cc(OC)ccc4o3)ccc2C)cc1[N+](=O)[O-] | inconclusive: 20.6 µM [activator, single point] | – |
| COc1ccc(/C=C2\COc3ccccc3C2=O)c(OC)c1 | inconclusive: 23.1 µM [activator, single point] | – |
| O=c1[nH]c2ccccc2cc1-c1nnn(-c2ccc(F)cc2)n1 | inconclusive: 5.8 µM [activator, single point] | – |
| O=C(c1cc(C2CC2)nn1-c1ccccc1)N1CCN(S(=O)(=O)c2ccccc2)CC1 | – | inactive: -15.7% |
| O=C(COc1ccccc1/C=C1\SC(=S)NC1=O)Nc1ccc(F)cc1 | active: 23.1 µM | – |

Of the compounds above, these contain a furan ring, fused or not.

| SMILES | Potency | activity change, negative = inhibition |
| --- | --- | --- |
| Cc1cc(NC(=O)c2cc(-c3ccco3)on2)no1 | inconclusive: 23.1 µM [activator, partial curve, poor fit] | – |
| O=c1c2c3nc4ccccc4nc3n(Cc3ccccc3)c2ncn1Cc1ccco1 | inconclusive: 29.1 µM [falling, single point] | – |

Next structures.

| SMILES | Potency | activity change, negative = inhibition |
| --- | --- | --- |
| CC(=O)Nc1ccc2c(c1)Cc1cc(N3C(=O)C=CC3=O)ccc1-2 | – | inactive: -9.07% |
| OC1CCCN(Cc2ccc3ccc4cccc5ccc2c3c45)C1 (stereo not drawn) | – | inactive: 1.4% |
| COc1cccc(N2CCN(C(=O)C3CCCN(S(=O)(=O)c4cccc5nsnc45)C3)CC2)c1 (stereo not drawn) | active: 16.4 µM | – |
| Cc1ccc(CNC(=O)CCc2c(C)nn(-c3ccc(N4CCOCC4)nn3)c2C)cc1 | inconclusive: 29.1 µM [activator, single point] | – |
| CC(C)(C)C1CCC(=O)N(CCOc2ccccc2)CC1 (stereo not drawn) | inconclusive: 23.1 µM [activator, single point] | – |
| CCOc1ccc(C(=O)c2cn(CC(=O)Nc3ccc4c(c3)OCO4)c3ccc(OC)cc3c2=O)cc1 | – | inactive: 4% |
| COc1ccccc1N/N=C(\C#N)C(=N)N1CCOCC1 | inconclusive: 6.51 µM [activator, single point] | – |
| N=c1oc2cc(O)ccc2cc1C(=O)Nc1nc2ccccc2s1 | inconclusive: 10.3 µM [activator, partial curve] | – |
| Cc1nn2c(-c3ccccc3)ccnc2c1-c1ccccc1 | – | inactive: 28.8% |
| CCCCCCCCNC(=O)CCNC(=O)c1ccc(C(C)(C)C)cc1 | inconclusive: 25.9 µM [falling, single point] | – |
| COc1ccc(NC(=O)c2cc3ccccc3o2)cc1S(=O)(=O)N1CCCCC1 | inconclusive: 29.1 µM [falling, single point] | – |
| CCOC(=O)N1CCN(C(=O)CSCc2ccc(Cl)cc2)CC1 | inconclusive: 29.1 µM [activator, single point] | – |
| Cn1c(=O)n(C)c2cc([N+](=O)[O-])c(N3CCN(C(=O)c4ccccc4Cl)CC3)cc21 | inconclusive: 16.4 µM [falling, single point] | – |
| Cc1ccc(C(=O)Nc2cccnc2Cl)cc1Cl | inconclusive: 20.6 µM [activator, partial curve] | – |
| O=[N+]([O-])c1ccccc1N(CC1CO1)S(=O)(=O)c1ccccc1 (stereo not drawn) | – | inactive: -1.36% |
| C/C(=N/NC(=O)Cc1cccc2ccccc12)c1cccs1 | inconclusive: 23.1 µM [falling, single point] | – |
| COC(=O)[C@@]1(Cc2ccc(OC)cc2)[C@H]2c3cc(C(=O)N(C)C)n(Cc4c(CO)[nH]cc(C)c4=O)c3C[C@H]2CN1C(=O)c1ccccc1 | – | inactive: 9.6% |
| Cc1ccccc1OCc1nc2c3cnn(-c4cccc(F)c4)c3ncn2n1 | – | inactive: 8.63% |
| O=C(NCCc1c[nH]c2ccccc12)c1cnc2sccn2c1=O | inconclusive: 2.91 µM [activator, full curve] | – |
| COc1ccc(/C=N/NC(=O)c2ccn[nH]2)cc1Cn1nc(C)c([N+](=O)[O-])c1C | inconclusive: 16.4 µM [falling, single point] | – |
| COc1ccc(C(=O)/C=C/c2ccc(OC)c(Cn3nnc4ccccc43)c2)cc1 | active: 20.6 µM | – |

Reformatted as tab-separated lines: part of the list above
SMILES	Potency	activity change, negative = inhibition
COc1ccc(-c2nc3ccccc3c(=O)n2NC(=O)Cc2ccccc2)cc1	–	inactive: 12.2%
CCn1c(=N)n(CC(=O)c2cccc([N+](=O)[O-])c2)c2ccccc21	inconclusive: 5.8 µM [activator, partial curve]	–
